From PMC4823986

T1: Clueless (Clu), endogenous in S2R+ cells (Drosophila (endogenous in S2R+ cells)) (UniProt A1ZAB5)
T1 sequence: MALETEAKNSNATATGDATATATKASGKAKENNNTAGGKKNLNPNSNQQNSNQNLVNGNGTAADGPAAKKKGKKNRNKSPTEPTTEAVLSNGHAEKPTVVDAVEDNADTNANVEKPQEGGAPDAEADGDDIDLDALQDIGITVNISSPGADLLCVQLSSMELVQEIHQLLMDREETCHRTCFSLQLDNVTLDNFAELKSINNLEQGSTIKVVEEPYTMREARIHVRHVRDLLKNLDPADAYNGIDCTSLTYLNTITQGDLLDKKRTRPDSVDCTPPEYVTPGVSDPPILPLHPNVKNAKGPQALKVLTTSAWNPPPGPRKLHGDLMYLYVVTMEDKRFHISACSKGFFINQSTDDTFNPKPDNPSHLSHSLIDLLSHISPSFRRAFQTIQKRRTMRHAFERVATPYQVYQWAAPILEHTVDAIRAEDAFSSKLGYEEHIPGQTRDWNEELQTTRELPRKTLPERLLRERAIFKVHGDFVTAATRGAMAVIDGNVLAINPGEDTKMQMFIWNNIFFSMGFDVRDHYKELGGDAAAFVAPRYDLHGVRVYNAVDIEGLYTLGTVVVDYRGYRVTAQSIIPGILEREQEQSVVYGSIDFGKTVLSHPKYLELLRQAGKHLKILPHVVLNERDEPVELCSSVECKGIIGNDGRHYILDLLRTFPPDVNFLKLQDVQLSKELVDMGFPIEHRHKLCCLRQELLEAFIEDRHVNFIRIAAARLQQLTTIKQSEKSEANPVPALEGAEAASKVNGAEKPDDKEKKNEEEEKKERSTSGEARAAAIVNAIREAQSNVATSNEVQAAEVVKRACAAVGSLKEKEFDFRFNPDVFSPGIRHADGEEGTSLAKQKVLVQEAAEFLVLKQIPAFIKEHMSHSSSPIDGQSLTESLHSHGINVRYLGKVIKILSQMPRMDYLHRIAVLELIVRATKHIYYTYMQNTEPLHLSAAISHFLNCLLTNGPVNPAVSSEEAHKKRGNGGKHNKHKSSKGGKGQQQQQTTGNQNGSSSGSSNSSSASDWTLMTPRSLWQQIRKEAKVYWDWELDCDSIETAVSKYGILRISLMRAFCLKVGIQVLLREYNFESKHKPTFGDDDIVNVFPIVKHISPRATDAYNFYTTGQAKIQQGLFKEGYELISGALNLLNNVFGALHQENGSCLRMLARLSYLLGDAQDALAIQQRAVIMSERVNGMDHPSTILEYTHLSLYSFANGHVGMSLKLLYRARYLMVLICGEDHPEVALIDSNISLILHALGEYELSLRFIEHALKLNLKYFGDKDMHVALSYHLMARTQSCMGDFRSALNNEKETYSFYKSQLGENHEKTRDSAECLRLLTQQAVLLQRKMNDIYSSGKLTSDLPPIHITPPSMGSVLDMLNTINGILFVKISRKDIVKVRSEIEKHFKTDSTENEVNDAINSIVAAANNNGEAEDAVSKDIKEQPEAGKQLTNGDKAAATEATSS


Tests used:
[1] = molecular target: T1, Clueless (Clu), endogenous in S2R+ cells (Drosophila (endogenous in S2R+ cells)); assay: co-IP; S2R+ cells transfected with myc-tagged proteins; reciprocal co-IPs with Clu, western blot
[2] = molecular target: myc-tagged Drosophila eIF3gb (Drosophila); assay: as above

Molecule	binding [1]	binding [2]
myc-tagged Drosophila eIF3gb	binds	
Clueless (Clu), endogenous in S2R+ cells (protein, UniProt A1ZAB5 1-1448) MALETEAKNSNATATGDATATATKASGKAKENNNTAGGKKNLNPNSNQQNSNQNLVNGNGTAADGPAAKKKGKKNRNKSPTEPTTEAVLSNGHAEKPTVVDAVEDNADTNANVEKPQEGGAPDAEADGDDIDLDALQDIGITVNISSPGADLLCVQLSSMELVQEIHQLLMDREETCHRTCFSLQLDNVTLDNFAELKSINNLEQGSTIKVVEEPYTMREARIHVRHVRDLLKNLDPADAYNGIDCTSLTYLNTITQGDLLDKKRTRPDSVDCTPPEYVTPGVSDPPILPLHPNVKNAKGPQALKVLTTSAWNPPPGPRKLHGDLMYLYVVTMEDKRFHISACSKGFFINQSTDDTFNPKPDNPSHLSHSLIDLLSHISPSFRRAFQTIQKRRTMRHAFERVATPYQVYQWAAPILEHTVDAIRAEDAFSSKLGYEEHIPGQTRDWNEELQTTRELPRKTLPERLLRERAIFKVHGDFVTAATRGAMAVIDGNVLAINPGEDTKMQMFIWNNIFFSMGFDVRDHYKELGGDAAAFVAPRYDLHGVRVYNAVDIEGLYTLGTVVVDYRGYRVTAQSIIPGILEREQEQSVVYGSIDFGKTVLSHPKYLELLRQAGKHLKILPHVVLNERDEPVELCSSVECKGIIGNDGRHYILDLLRTFPPDVNFLKLQDVQLSKELVDMGFPIEHRHKLCCLRQELLEAFIEDRHVNFIRIAAARLQQLTTIKQSEKSEANPVPALEGAEAASKVNGAEKPDDKEKKNEEEEKKERSTSGEARAAAIVNAIREAQSNVATSNEVQAAEVVKRACAAVGSLKEKEFDFRFNPDVFSPGIRHADGEEGTSLAKQKVLVQEAAEFLVLKQIPAFIKEHMSHSSSPIDGQSLTESLHSHGINVRYLGKVIKILSQMPRMDYLHRIAVLELIVRATKHIYYTYMQNTEPLHLSAAISHFLNCLLTNGPVNPAVSSEEAHKKRGNGGKHNKHKSSKGGKGQQQQQTTGNQNGSSSGSSNSSSASDWTLMTPRSLWQQIRKEAKVYWDWELDCDSIETAVSKYGILRISLMRAFCLKVGIQVLLREYNFESKHKPTFGDDDIVNVFPIVKHISPRATDAYNFYTTGQAKIQQGLFKEGYELISGALNLLNNVFGALHQENGSCLRMLARLSYLLGDAQDALAIQQRAVIMSERVNGMDHPSTILEYTHLSLYSFANGHVGMSLKLLYRARYLMVLICGEDHPEVALIDSNISLILHALGEYELSLRFIEHALKLNLKYFGDKDMHVALSYHLMARTQSCMGDFRSALNNEKETYSFYKSQLGENHEKTRDSAECLRLLTQQAVLLQRKMNDIYSSGKLTSDLPPIHITPPSMGSVLDMLNTINGILFVKISRKDIVKVRSEIEKHFKTDSTENEVNDAINSIVAAANNNGEAEDAVSKDIKEQPEAGKQLTNGDKAAATEATSS		binds

No constants are given. Whether binding was seen depends on the method and setting. In cells and extracts the contact can be indirect. Binding can be weak; no strength is given.
